Patent US20130023541A1, “VOLTAGE-GATED SODIUM CHANNEL BLOCKERS” (Glaxo Group Limited, priority 2010, published 2013)
Where a name gives a salt, the structure may show the parent alone. Some results were stated once for a whole list of compounds, not compound by compound.

The chains behind the UniProt entries cited, without tags or fusion partners.
UniProt Q15858, whole entry: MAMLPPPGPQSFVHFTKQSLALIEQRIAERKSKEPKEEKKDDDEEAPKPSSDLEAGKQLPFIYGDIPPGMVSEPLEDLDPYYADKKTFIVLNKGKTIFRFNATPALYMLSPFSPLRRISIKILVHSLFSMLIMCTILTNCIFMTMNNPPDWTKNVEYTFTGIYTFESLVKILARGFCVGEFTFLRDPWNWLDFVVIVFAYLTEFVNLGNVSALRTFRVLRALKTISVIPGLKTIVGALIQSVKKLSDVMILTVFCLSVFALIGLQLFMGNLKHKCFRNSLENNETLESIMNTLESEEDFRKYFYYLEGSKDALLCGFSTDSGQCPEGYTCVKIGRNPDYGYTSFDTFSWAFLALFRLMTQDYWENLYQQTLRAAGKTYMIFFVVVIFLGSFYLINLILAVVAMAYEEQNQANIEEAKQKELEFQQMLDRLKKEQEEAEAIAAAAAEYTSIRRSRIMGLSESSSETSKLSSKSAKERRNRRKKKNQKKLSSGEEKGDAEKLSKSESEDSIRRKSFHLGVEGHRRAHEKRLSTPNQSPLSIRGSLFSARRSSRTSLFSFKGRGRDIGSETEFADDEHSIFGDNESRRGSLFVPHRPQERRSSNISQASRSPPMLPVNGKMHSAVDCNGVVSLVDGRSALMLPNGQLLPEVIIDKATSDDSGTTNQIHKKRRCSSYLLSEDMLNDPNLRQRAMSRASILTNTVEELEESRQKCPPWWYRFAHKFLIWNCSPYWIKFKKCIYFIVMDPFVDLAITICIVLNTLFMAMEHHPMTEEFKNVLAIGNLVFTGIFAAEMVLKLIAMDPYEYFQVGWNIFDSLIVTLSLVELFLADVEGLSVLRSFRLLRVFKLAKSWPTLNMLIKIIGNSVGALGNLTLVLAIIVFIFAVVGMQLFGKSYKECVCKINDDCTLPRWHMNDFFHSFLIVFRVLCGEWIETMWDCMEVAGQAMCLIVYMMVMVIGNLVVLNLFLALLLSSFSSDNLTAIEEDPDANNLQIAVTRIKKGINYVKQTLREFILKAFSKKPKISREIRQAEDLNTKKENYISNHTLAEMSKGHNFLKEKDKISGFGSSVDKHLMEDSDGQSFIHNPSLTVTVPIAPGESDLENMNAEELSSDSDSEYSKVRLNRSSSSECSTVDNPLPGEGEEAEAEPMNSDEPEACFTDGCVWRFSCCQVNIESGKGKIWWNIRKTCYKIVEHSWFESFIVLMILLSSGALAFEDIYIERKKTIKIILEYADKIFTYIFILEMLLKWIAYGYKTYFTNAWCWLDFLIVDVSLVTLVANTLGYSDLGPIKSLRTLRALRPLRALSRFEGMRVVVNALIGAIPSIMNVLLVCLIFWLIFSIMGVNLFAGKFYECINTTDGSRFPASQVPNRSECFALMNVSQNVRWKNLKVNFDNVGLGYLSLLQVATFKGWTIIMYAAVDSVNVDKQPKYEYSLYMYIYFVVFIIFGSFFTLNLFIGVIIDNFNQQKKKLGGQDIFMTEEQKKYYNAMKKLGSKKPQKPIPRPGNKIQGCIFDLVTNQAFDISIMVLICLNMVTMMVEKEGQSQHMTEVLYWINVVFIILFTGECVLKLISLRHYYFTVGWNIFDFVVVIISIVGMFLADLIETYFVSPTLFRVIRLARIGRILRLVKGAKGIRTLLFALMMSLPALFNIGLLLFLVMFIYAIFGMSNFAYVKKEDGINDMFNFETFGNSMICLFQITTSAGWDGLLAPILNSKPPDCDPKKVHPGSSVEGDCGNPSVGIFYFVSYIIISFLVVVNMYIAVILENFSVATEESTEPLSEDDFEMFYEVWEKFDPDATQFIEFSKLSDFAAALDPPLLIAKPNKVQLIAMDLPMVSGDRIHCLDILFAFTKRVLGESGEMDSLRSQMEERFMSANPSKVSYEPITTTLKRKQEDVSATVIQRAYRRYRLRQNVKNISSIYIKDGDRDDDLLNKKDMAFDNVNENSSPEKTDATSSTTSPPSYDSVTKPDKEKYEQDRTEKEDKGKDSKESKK
UniProt Q9NY46, whole entry: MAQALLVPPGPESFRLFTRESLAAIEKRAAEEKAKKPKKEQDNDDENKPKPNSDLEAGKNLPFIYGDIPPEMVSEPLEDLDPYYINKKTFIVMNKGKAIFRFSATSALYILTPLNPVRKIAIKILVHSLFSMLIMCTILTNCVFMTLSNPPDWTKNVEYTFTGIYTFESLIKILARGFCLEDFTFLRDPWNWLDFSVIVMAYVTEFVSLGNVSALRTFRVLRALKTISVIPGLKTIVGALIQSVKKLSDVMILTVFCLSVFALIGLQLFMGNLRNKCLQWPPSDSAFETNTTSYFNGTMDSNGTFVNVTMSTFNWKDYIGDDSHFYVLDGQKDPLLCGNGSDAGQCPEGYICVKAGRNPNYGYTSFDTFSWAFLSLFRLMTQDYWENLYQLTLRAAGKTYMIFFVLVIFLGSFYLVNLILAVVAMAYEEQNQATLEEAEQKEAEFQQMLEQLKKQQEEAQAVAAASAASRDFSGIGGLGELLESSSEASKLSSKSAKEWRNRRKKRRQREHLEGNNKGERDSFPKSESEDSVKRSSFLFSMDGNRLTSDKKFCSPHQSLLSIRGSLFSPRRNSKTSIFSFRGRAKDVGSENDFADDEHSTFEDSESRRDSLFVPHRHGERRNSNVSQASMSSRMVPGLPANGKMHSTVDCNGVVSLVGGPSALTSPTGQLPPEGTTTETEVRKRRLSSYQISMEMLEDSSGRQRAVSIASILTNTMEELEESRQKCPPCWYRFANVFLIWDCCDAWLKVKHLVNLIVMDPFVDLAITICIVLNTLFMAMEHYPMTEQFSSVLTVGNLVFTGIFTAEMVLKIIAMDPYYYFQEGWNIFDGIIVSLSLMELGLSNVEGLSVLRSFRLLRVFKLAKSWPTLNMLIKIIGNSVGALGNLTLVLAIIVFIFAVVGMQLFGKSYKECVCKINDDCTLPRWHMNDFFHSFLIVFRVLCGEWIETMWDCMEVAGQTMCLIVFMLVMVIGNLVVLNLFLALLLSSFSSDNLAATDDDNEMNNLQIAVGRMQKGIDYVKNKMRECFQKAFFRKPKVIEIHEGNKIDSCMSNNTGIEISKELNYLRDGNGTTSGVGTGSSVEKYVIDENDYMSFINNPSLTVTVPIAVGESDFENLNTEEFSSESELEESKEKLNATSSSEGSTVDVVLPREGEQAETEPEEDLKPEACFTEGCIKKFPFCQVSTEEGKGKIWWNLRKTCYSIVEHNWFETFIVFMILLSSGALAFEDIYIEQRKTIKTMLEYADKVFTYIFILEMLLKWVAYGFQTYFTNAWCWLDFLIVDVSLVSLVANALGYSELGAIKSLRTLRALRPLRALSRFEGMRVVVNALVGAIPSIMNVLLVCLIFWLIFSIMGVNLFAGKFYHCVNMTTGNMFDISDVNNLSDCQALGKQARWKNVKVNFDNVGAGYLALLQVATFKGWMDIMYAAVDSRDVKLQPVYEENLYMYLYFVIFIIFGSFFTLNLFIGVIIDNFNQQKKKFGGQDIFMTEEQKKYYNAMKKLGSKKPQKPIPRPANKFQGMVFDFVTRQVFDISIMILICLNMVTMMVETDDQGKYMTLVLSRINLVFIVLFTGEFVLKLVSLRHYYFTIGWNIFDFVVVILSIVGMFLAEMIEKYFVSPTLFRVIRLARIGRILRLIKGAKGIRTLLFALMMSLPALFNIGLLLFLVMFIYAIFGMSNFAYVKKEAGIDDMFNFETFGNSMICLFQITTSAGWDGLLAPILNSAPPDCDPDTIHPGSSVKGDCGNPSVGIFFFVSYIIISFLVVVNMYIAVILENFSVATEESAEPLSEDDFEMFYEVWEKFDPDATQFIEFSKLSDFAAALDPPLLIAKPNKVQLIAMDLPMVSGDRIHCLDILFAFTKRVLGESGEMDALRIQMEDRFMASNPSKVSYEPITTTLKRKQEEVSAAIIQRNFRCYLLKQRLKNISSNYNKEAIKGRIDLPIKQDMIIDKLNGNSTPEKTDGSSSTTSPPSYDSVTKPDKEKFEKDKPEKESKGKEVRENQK

How the values were obtained:
NaV 1.7 = NaV 1.7 (Homo sapiens, UniProt Q15858); experiment: Use-dependent block of NaV1.7 currents, IonWorks Quattro planar array electrophysiology; assay type: cell-based; conditions: concentration producing 15% use-dependent inhibition, 10th versus 1st depolarizing pulse, 10 Hz
hNaV1.3 channels = biological target: T1, hNaV1.3 channels (Homo sapiens, UniProt Q9NY46); experiment: Use-dependent block of hNaV1.3 currents, IonWorks Quattro planar array electrophysiology; assay type: cell-based; conditions: concentration producing 15% use-dependent inhibition, 10th versus 1st depolarizing pulse, 10 Hz, CHO cells
T1 construct: expressed in transfected cells

Structure (SMILES): CCN(Cc1ccc(OC)cc1)[C@@H]1CCN(c2nccc(-c3ccccc3)c2C(=O)OC(C)C)C1 [Example 156, 1-methylethyl 2-[(3R)-3-(ethyl{[4-(methyloxy)phenyl]methyl}amino)-1-pyrrolidinyl]-4-phenyl-3-pyridinecarboxylate]
- use-dependent pUD15 against NaV1.7 (NaV 1.7): inactive
- use-dependent pUD15 against NaV1.3 (hNaV1.3 channels): 5-5.99

Structure (SMILES): Cc1cccc(COc2ccc(CN3CCN(c4ncccc4C(=O)OC(C)C)CC3)cc2)c1 [Example 435]
- use-dependent pUD15 against NaV1.7 (NaV 1.7): 5-5.99
- use-dependent pUD15 against NaV1.3 (hNaV1.3 channels): 5-5.99

Structure (SMILES): Cc1ccc(CN2CCN(c3nccc(-c4ccccc4)c3C(=O)OC(C)C)CC2)s1 [Example 129, 1-methylethyl 2-{4-[(5-methyl-2-thienyl)methyl]-1-piperazinyl}-4-phenyl-3-pyridinecarboxylate]
- use-dependent pUD15 against NaV1.7 (NaV 1.7): 5-5.99
- use-dependent pUD15 against NaV1.3 (hNaV1.3 channels): 4-4.99

Structure (SMILES): CCN(Cc1cccc(Oc2ccc(OC)cc2)c1)[C@H]1CCN(c2ncccc2C(=O)OC(C)C)C1 [Example 186]
- use-dependent pUD15 against NaV1.7 (NaV 1.7): inactive
- use-dependent pUD15 against NaV1.3 (hNaV1.3 channels): 4-4.99

Structure (SMILES): CC(C)OC(=O)c1cccnc1N1CCN(Cc2cccc(OCc3cccc(Cl)c3)c2)CC1 [Example 76]
- use-dependent pUD15 against NaV1.7 (NaV 1.7): inactive
- use-dependent pUD15 against NaV1.3 (hNaV1.3 channels): 4-4.99

Structure (SMILES): CCN(Cc1cnc(CN2CCN(c3ncccc3C(=O)OC(C)C)CC2)cn1)Cc1c(F)cccc1Cl [Example 509, 1-methylethyl 2-{4-[(5-{[[(2-chloro-6-fluorophenyl)methyl](ethyl)amino]methyl}-2-pyrazinyl)methyl]-1-piperazinyl}-3-pyridinecarboxylate]
- use-dependent pUD15 against NaV1.7 (NaV 1.7): 5-5.99
- use-dependent pUD15 against NaV1.3 (hNaV1.3 channels): 5-5.99

Structure (SMILES): CCOc1ccccc1COc1ccc(CN2CCN(c3ncccc3C(=O)OC(C)C)CC2)cc1 [Example 445]
- use-dependent pUD15 against NaV1.7 (NaV 1.7): inactive
- use-dependent pUD15 against NaV1.3 (hNaV1.3 channels): 4-4.99

Structure (SMILES): CCc1ccc(CN(C)[C@H]2CCN(c3ncccc3C(=O)OC(C)C)C2)s1 [Example 12, 1-Methylethyl 2-{(3S)-3-[[(5-ethyl-2-thienyl)methyl](methyl)amino]-1-pyrrolidinyl}-3-pyridinecarboxylate]
- use-dependent pUD15 against NaV1.7 (NaV 1.7): 5-5.99
- use-dependent pUD15 against NaV1.3 (hNaV1.3 channels): 4-4.99

Structure (SMILES): CCn1c2ccccc2c2cc(CN3CCN(c4ncccc4C(=O)OC(C)C)CC3)ccc21 [Example 353]
- use-dependent pUD15 against NaV1.7 (NaV 1.7): inactive
- use-dependent pUD15 against NaV1.3 (hNaV1.3 channels): 5-5.99

Structure (SMILES): CCOc1ccccc1CN(CC)[C@@H]1CCN(c2nccc(-c3ccccc3)c2C(=O)OC(C)C)C1 [Example 149, 1-methylethyl 2-[(3R)-3-(ethyl{[2-(ethyloxy)phenyl]methyl}amino)-1-pyrrolidinyl]-4-phenyl-3-pyridinecarboxylate]
- use-dependent pUD15 against NaV1.7 (NaV 1.7): 5-5.99
- use-dependent pUD15 against NaV1.3 (hNaV1.3 channels): 5-5.99

Structure (SMILES): CC(C)OC(=O)c1c(Nc2ccccc2C(C)C)ccnc1N1CCN(Cc2ccccc2)CC1 [Example 104, 1-methylethyl 4-{[2-(1-methylethyl)phenyl]amino}-2-[4-(phenylmethyl)-1-piperazinyl]-3-pyridinecarboxylate]
- use-dependent pUD15 against NaV1.7 (NaV 1.7): inactive
- use-dependent pUD15 against NaV1.3 (hNaV1.3 channels): 4-4.99

Structure (SMILES): CC(C)OC(=O)c1cccnc1N1CCN(Cc2cccc(Oc3ccc(C(C)(C)C)cc3)c2)CC1 [Example 367]
- use-dependent pUD15 against NaV1.7 (NaV 1.7): inactive
- use-dependent pUD15 against NaV1.3 (hNaV1.3 channels): inactive

Structure (SMILES): CC(C)OC(=O)c1cccnc1N1CCN(Cc2ccc(CO)cc2)CC1 [Example 34, 1-Methylethyl2-(4-{[4-(hydroxymethyl)phenyl]methyl}-1-piperazinyl)-3-pyridine carboxylate hydrochloride]
- use-dependent pUD15 against NaV1.7 (NaV 1.7): 5-5.99
- use-dependent pUD15 against NaV1.3 (hNaV1.3 channels): 4-4.99

Structure (SMILES): Cc1ccccc1COc1cccc(CN2CCN(c3ncccc3C(=O)OC(C)C)CC2)c1 [Example 79]
- use-dependent pUD15 against NaV1.7 (NaV 1.7): 4-4.99
- use-dependent pUD15 against NaV1.3 (hNaV1.3 channels): 5-5.99

Structure (SMILES): CCN(Cc1cccc(OC)c1)[C@@H]1CCN(c2nccc(-c3ccccc3)c2C(=O)OC(C)C)C1 [Example 151, 1-methylethyl 2-[(3R)-3-(ethyl{[3-(methyloxy)phenyl]methyl}amino)-1-pyrrolidinyl]-4-phenyl-3-pyridinecarboxylate]
- use-dependent pUD15 against NaV1.7 (NaV 1.7): 5-5.99
- use-dependent pUD15 against NaV1.3 (hNaV1.3 channels): 5-5.99

Structure (SMILES): CCN(Cc1ccc(C)s1)[C@@H]1CCN(c2nccc(C)c2C(=O)OC(C)C)C1 [Example 288, 1-methylethyl 2-((3R)-3-{ethyl[(5-methyl-2-thienyl)methyl]amino}-1-pyrrolidinyl)-4-methyl-3-pyridinecarboxylate]
- use-dependent pUD15 against NaV1.7 (NaV 1.7): 5-5.99
- use-dependent pUD15 against NaV1.3 (hNaV1.3 channels): 5-5.99

Structure (SMILES): CCc1ccc(CN(C)[C@H]2CCN(c3ncccc3C(=O)OC(C)C)C2)cc1 [Example 15, 1-Methylethyl 2-{(3S)-3-[[(4-ethylphenyl)methyl](methyl)amino]-1-pyrrolidinyl}-3-pyridinecarboxylate]
- use-dependent pUD15 against NaV1.7 (NaV 1.7): 5-5.99
- use-dependent pUD15 against NaV1.3 (hNaV1.3 channels): 5-5.99

Structure (SMILES): CCN(Cc1ccc(Oc2ccc(OC)cc2)cc1)[C@H]1CCN(c2ncccc2C(=O)OC(C)C)C1 [Example 185]
- use-dependent pUD15 against NaV1.7 (NaV 1.7): 4-4.99
- use-dependent pUD15 against NaV1.3 (hNaV1.3 channels): 4-4.99

Structure (SMILES): Cc1ccc(COc2cccc(CN3CCN(c4ncccc4C(=O)OC(C)C)CC3)c2)cc1 [Example 78]
- use-dependent pUD15 against NaV1.7 (NaV 1.7): 4-4.99
- use-dependent pUD15 against NaV1.3 (hNaV1.3 channels): 5-5.99

Structure (SMILES): CC(C)OC(=O)c1cccnc1N(C)[C@H]1CCN(Cc2cccc(OCc3ccccc3Cl)c2)C1 [Example 388]
- use-dependent pUD15 against NaV1.7 (NaV 1.7): 4-4.99
- use-dependent pUD15 against NaV1.3 (hNaV1.3 channels): 5-5.99

Structure (SMILES): CC(C)OC(=O)c1cccnc1N1CCN(Cc2ccccc2Oc2ccc(F)cc2)CC1 [Example 360]
- use-dependent pUD15 against NaV1.7 (NaV 1.7): 5-5.99
- use-dependent pUD15 against NaV1.3 (hNaV1.3 channels): 5-5.99

Structure (SMILES): CC(C)OC(=O)c1cccnc1N1CCN(Cc2ccc(Nc3c(F)cccc3F)cc2)CC1 [Example 121, 1-methylethyl 2-[4-({4-[(2,6-difluorophenyl)amino]phenyl}methyl)-1-piperazinyl]-3-pyridinecarboxylate]
- use-dependent pUD15 against NaV1.7 (NaV 1.7): 4-4.99
- use-dependent pUD15 against NaV1.3 (hNaV1.3 channels): 5-5.99

Structure (SMILES): CCN(Cc1ccc(OCc2ccccc2)cc1)[C@@H]1CCN(c2nccc(-c3ccccc3)c2C(=O)OC(C)C)C1 [Example 154, 1-methylethyl 2-{(3R)-3-[ethyl({4-[(phenylmethyl)oxy]phenyl}methyl)amino]-1-pyrrolidinyl}-4-phenyl-3-pyridinecarboxylate]
- use-dependent pUD15 against NaV1.7 (NaV 1.7): inactive
- use-dependent pUD15 against NaV1.3 (hNaV1.3 channels): 4-4.99

Structure (SMILES): CC(C)OC(=O)c1c(Nc2ccc(C(C)C)cc2)ccnc1N1CCN(Cc2ccccc2)CC1 [Example 103, 1-methylethyl 4-{[4-(1-methylethyl)phenyl]amino}-2-[4-(phenylmethyl)-1-piperazinyl]-3-pyridinecarboxylate]
- use-dependent pUD15 against NaV1.7 (NaV 1.7): 5-5.99
- use-dependent pUD15 against NaV1.3 (hNaV1.3 channels): 4-4.99

Structure (SMILES): CCN(Cc1ccc(CN2CCN(c3ncccc3COC(=O)C(C)C)CC2)cc1)Cc1c(F)cccc1Cl [Example 507, (2-{4-[(4-{[[(2-chloro-6-fluorophenyl)methyl](ethyl)amino]methyl}phenyl)methyl]-1-piperazinyl}-3-pyridinyl)methyl 2-methylpropanoate]
- use-dependent pUD15 against NaV1.7 (NaV 1.7): 5-5.99
- use-dependent pUD15 against NaV1.3 (hNaV1.3 channels): 5-5.99

Structure (SMILES): CCc1ccc(CN2CCN(c3ncccc3C(=O)OC(C)C)CC2)s1 [Example 1, 1-Methylethyl 2-{4-[(5-ethyl-2-thienyl)methyl]-1-piperazinyl}-3-pyridinecarboxylate]
- use-dependent pUD15 against NaV1.7 (NaV 1.7): 5-5.99
- use-dependent pUD15 against NaV1.3 (hNaV1.3 channels): 5-5.99

Structure (SMILES): Cc1cc(C)cc(COc2cccc(CN3CCN(c4ncccc4C(=O)OC(C)C)CC3)c2)c1 [Example 402]
- use-dependent pUD15 against NaV1.7 (NaV 1.7): 4-4.99
- use-dependent pUD15 against NaV1.3 (hNaV1.3 channels): 5-5.99

Structure (SMILES): CCc1ccccc1CN(CC)[C@H]1CCN(c2ncccc2C(=O)OC(C)C)C1 [Example 21, 1-Methylethyl 2-((3S)-3-{ethyl[(2-ethylphenyl)methyl]amino}-1-pyrrolidinyl)-3-pyridinecarboxylate]
- use-dependent pUD15 against NaV1.7 (NaV 1.7): 4-4.99
- use-dependent pUD15 against NaV1.3 (hNaV1.3 channels): 5-5.99

Structure (SMILES): CC(C)OC(=O)c1cccnc1N1CCN(Cc2ccc(OCc3ccccc3-c3ccccc3)cc2)CC1 [Example 450]
- use-dependent pUD15 against NaV1.7 (NaV 1.7): inactive
- use-dependent pUD15 against NaV1.3 (hNaV1.3 channels): 4-4.99

Structure (SMILES): COc1ccccc1Sc1ccnc(N2CCN(Cc3ccccc3)CC2)c1C(=O)OC(C)C [Example 110, 1-methylethyl 4-{[2-(methyloxy)phenyl]thio}-2-[4-(phenylmethyl)-1-piperazinyl]3-pyridine carboxylate]
- use-dependent pUD15 against NaV1.7 (NaV 1.7): 4-4.99
- use-dependent pUD15 against NaV1.3 (hNaV1.3 channels): 4-4.99

Structure (SMILES): CC(C)OC(=O)c1cccnc1N1CCN(Cc2cccc(OCC(=O)O)c2)CC1 [Example 92, [(3-{[4-(3-{[(1-methylethyl)oxy]carbonyl}-2-pyridinyl)-1-piperazinyl]methyl}phenyl)oxy]acetic acid]
- use-dependent pUD15 against NaV1.7 (NaV 1.7): inactive
- use-dependent pUD15 against NaV1.3 (hNaV1.3 channels): inactive

Structure (SMILES): CCN(Cc1ccccc1Oc1ccc(F)cc1)[C@@H]1CCN(c2ncccc2C(=O)OC(C)C)C1 [Example 53, 1-methylethyl 2-{(3R)-3-[ethyl({2-[(4-fluorophenyl)oxy]phenyl}methyl)amino]-1-pyrrolidinyl}-3-pyridinecarboxylate]
- use-dependent pUD15 against NaV1.7 (NaV 1.7): 4-4.99
- use-dependent pUD15 against NaV1.3 (hNaV1.3 channels): 5-5.99

Structure (SMILES): CCOc1ccccc1CN(CC)[C@@H]1CCN(c2nccc(C)c2C(=O)OC(C)C)C1 [Example 293, 1-methylethyl 2-[(3R)-3-(ethyl{[2-(ethyloxy)phenyl]methyl}amino)-1-pyrrolidinyl]-4-methyl-3-pyridinecarboxylate]
- use-dependent pUD15 against NaV1.7 (NaV 1.7): inactive
- use-dependent pUD15 against NaV1.3 (hNaV1.3 channels): 4-4.99

Structure (SMILES): CCCCCCOc1ccc(CN2CC[C@H](N(C)c3ncccc3C(=O)OC(C)C)C2)cc1 [Example 378]
- use-dependent pUD15 against NaV1.7 (NaV 1.7): 5-5.99
- use-dependent pUD15 against NaV1.3 (hNaV1.3 channels): 4-4.99

Structure (SMILES): CCN(Cc1ccc(CN2CCN(c3ncccc3C(=O)OC(C)C)CC2)cc1)Cc1c(F)cccc1Cl [Example 474, 1-Methylethyl 2-{4-[(4-{[[(2-chloro-6-fluorophenyl)methyl](ethyl)amino]methyl}phenyl)methyl]-1-piperazinyl}-3-pyridinecarboxylate]
- use-dependent pUD15 against NaV1.7 (NaV 1.7): 5-5.99
- use-dependent pUD15 against NaV1.3 (hNaV1.3 channels): 5-5.99
